No constants are given. Whether binding was seen depends on the method and setting. Binding seen in cells or lysates may run through a third protein. Some results given as binding are weak or reduced against the parent protein; the word gives no strength. For part of these data: Sequences can lack the tags named with a protein. Each block holds one substance with its values, some of them ahead of it.
Experiments:
[1] = target: T1, CHDP-1 of the GST pull-down (C. elegans) (UniProt P91027); assay: pull-down; GST pull-down to verify hits of the mass spectrometry; not described further
T1 sequence: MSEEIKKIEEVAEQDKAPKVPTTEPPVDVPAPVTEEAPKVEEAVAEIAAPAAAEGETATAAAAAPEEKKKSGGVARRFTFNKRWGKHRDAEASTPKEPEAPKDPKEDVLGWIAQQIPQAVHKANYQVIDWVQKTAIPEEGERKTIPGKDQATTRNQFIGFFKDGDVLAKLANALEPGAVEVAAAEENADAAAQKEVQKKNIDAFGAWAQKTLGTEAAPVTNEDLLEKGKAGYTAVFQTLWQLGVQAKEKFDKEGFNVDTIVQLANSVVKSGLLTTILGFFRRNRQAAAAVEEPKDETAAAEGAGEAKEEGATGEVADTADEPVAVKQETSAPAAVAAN

[2] = target: Flag-tagged full-length CHDP-1 (C. elegans) (UniProt P91027); assay: co-IP; HEK293T cells co-transfected with Flag- and Myc-tagged constructs; lysates incubated with anti-FLAG M2 affinity gel beads at 4 °C overnight, washed three times, immunoblot
[3] = target: T2, CHDP-1 CH domain fragment (AA 121-242) (C. elegans) (UniProt P91027); assay: as above
T2 sequence: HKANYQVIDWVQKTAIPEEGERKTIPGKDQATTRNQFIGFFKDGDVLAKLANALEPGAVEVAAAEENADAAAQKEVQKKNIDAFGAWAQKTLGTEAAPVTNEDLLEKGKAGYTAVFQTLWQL

- binding [1]: binds
Substance: CED-10 of the GST pull-down (from UniProt Q03206 1-191)

- binding [2]: binds
Substance: Myc-tagged CED-10 (G12V) (from UniProt Q03206 1-191)

- binding [3]: binds
Substance: Myc-tagged CED-10 (from UniProt Q03206 1-191)
